At least one compound was matched to its structure with a doubt left.
Test system: HepG2 cells
Test: PPAR agonist studies, FAHFA levels in HepG2 cells
Assay type: cell-based
Details: 0.5 uM and 1.0 uM, 48 hr, cells and media
Protocol: In this example, HepG2 cells were seeded in 6-well plates. At 80% confluence, cells were treated with two different concentrations [0.5 uM and 1.0 uM] of an agonist of PPAR α (WY14643), δ (CAY10592), or γ (Pioglitazone) for 48 hr in HepG2 media with 2.5% FBS. At the end of incubation, 500 uL of media was collected and the cells were collected in PBS for lipid extraction. Lipids were extracted from both media and cells to quantitate the FAHFA levels by Mass Spec. The results are summarized in FIGS. 33 and 34 for the cells and media, respectively.
HepG2 cells were seeded in 6-well plate. At 80% confluence, cells were treated with two different concentrations [0.5 μM and 1.0 μM] of PPAR α/δ/γ agonists for 48 h in HepG2 media containing 2.5% fetal bovine serum (PPAR α agonist—WY14643; PPAR δ agonist—CAY10592; PPAR γ agonist—Pioglitazone). At the end of incubation, 500 μL of media and the cells were collected in PBS. Lipids were extracted as per Folch Method from both media and cells to quantitate the FAHFA levels by Mass Spec. Briefly, chloroform and methanol were added to the media or cells in 2:1 ratio and sonicated for 2-3 min and centrifuged at 3000 rpm for 10 min at 4° C. […] Calculated volume of chloroform is added to the dissolve the lipids and 2 μL of injection volume was used to analyze FAHFAs through Mass spec. […]

In the case of `CCc1ccc(CCOc2ccc(CC3SC(=O)NC3=O)cc2)nc1` (stereo not shown) [Pioglitazone], the “FAHFA production in liver cells” value is reported as “stimulate FAHFA production”.
